# Laboratory results as given in the supplement of paper PMC7666118.
# Sequences of proteins named here, by UniProt entry; tags and fusion partners are left off. A change or cut given only in a name is not applied to a line headed by its entry.
# UniProt Q32NC0: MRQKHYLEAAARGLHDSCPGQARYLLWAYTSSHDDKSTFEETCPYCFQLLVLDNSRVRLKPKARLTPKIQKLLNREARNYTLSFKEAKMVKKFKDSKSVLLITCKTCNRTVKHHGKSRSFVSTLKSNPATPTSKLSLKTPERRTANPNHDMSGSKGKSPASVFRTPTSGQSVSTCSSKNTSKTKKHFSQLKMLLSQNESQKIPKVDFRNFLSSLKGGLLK
# UniProt P31944: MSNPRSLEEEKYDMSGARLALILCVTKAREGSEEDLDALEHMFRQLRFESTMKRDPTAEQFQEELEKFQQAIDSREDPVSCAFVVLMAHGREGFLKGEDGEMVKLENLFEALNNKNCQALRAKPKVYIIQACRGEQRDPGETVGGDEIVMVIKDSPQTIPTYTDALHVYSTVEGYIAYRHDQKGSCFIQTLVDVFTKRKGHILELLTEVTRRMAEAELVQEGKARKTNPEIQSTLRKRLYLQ
# UniProt Q96FZ2: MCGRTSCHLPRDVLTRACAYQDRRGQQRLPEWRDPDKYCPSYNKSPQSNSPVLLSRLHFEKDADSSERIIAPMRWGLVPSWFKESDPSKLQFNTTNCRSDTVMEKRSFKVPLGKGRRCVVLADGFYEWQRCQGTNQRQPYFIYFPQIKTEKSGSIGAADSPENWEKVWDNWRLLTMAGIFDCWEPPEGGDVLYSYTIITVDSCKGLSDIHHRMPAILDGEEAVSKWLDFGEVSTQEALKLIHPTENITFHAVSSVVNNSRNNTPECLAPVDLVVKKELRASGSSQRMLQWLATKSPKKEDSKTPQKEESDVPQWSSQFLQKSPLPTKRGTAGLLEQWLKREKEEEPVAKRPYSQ
# UniProt A6NDU8: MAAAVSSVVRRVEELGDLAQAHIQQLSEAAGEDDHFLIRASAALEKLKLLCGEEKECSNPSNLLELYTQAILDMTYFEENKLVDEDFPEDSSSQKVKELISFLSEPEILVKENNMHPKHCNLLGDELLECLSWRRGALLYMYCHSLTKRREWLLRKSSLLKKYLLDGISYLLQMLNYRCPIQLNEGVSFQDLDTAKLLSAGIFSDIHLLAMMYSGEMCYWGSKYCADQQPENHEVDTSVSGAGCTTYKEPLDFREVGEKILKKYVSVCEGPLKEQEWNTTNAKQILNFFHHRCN
# UniProt Q96NB1: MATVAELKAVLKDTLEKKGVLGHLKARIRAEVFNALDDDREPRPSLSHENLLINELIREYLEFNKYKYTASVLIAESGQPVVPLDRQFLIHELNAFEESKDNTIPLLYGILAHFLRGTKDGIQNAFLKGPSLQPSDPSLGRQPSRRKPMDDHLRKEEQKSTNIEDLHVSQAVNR
# UniProt P29466: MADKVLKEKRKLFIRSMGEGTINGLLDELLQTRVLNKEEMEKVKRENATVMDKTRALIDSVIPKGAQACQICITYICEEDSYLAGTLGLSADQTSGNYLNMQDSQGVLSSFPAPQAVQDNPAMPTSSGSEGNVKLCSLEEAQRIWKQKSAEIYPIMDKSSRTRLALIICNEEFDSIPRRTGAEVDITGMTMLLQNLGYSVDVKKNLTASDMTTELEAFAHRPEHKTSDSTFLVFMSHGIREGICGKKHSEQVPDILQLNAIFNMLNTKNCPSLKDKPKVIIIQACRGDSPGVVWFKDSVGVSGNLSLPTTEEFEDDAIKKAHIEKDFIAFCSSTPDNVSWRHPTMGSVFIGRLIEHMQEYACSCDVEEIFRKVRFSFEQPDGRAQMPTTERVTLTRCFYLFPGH
# UniProt Q96EX1: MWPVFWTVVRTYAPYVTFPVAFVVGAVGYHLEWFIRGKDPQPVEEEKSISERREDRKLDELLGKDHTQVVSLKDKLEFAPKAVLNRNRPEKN
# UniProt Q96RR4, whole entry, looked up: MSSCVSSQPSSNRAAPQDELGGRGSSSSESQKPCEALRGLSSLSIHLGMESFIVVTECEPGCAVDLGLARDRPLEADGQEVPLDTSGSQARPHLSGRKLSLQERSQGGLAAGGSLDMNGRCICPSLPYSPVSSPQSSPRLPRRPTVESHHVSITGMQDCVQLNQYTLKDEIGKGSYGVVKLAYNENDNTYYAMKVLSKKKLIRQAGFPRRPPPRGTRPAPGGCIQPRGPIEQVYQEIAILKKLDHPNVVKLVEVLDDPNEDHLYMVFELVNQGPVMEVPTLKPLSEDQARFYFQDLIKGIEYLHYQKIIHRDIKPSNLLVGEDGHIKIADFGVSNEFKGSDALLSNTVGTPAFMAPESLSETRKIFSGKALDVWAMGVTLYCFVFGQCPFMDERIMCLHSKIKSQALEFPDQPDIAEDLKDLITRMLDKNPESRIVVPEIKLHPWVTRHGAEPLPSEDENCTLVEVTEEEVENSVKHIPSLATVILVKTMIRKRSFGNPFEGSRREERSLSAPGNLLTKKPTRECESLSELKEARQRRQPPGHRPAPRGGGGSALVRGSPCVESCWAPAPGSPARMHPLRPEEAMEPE
# UniProt Q96LW7: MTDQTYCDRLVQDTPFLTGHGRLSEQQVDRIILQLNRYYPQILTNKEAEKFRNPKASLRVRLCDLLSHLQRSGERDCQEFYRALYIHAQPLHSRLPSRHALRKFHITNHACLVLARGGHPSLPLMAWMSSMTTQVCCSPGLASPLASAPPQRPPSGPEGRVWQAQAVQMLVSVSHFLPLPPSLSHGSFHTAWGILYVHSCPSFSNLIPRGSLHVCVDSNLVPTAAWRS
# UniProt P49069: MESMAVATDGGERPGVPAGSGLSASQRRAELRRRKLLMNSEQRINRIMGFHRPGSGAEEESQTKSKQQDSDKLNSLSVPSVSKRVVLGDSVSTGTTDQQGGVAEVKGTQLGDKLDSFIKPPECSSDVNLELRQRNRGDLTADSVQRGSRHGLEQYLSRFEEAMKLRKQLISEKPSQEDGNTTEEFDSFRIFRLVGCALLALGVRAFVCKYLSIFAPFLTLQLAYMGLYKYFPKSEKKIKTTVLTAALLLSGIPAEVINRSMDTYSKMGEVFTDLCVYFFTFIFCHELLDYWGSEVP
# UniProt Q13137: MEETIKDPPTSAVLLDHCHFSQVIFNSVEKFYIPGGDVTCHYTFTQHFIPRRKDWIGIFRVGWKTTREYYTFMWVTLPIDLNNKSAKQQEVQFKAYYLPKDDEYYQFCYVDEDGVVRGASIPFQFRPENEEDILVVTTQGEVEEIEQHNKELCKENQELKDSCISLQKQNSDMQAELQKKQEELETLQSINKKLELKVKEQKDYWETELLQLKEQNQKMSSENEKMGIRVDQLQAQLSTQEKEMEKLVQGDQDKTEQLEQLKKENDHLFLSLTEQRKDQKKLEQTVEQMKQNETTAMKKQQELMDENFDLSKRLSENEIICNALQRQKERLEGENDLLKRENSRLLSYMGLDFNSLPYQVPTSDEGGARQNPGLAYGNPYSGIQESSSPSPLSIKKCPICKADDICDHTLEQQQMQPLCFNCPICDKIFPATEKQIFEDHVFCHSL
# UniProt Q9BQA9: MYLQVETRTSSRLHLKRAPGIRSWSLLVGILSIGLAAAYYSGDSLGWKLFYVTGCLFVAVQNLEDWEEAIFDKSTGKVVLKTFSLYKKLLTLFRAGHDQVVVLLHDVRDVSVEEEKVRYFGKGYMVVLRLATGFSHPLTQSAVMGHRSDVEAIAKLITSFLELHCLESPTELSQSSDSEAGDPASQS
# UniProt P04040: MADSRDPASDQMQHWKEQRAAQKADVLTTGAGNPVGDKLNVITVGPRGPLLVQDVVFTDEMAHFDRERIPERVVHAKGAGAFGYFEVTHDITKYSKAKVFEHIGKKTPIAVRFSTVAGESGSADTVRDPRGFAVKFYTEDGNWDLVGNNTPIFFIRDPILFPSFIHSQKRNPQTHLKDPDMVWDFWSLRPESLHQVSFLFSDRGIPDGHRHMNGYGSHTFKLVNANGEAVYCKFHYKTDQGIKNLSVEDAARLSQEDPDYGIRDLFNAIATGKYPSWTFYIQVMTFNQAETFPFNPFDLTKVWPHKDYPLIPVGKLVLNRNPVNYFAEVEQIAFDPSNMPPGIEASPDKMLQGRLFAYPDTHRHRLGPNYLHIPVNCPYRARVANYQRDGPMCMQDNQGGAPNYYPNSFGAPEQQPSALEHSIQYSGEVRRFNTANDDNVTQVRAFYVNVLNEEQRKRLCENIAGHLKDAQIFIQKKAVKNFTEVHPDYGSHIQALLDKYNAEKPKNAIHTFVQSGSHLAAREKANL
# UniProt Q08AG7, whole entry: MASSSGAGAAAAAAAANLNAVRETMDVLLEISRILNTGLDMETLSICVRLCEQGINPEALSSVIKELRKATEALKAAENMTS
# UniProt Q96DZ1: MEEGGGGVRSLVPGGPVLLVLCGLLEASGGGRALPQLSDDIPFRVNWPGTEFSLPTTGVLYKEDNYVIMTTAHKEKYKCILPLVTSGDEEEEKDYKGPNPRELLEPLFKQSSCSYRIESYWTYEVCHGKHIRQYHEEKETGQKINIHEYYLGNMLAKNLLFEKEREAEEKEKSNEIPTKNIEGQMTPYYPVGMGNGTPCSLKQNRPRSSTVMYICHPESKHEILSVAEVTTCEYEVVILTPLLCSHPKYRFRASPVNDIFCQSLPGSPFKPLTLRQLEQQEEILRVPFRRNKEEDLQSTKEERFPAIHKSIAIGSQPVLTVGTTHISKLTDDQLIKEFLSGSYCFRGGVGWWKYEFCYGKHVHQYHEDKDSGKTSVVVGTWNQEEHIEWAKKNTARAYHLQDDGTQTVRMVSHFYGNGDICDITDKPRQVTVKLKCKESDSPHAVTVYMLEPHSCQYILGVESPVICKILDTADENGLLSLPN
# UniProt Q8IXQ3: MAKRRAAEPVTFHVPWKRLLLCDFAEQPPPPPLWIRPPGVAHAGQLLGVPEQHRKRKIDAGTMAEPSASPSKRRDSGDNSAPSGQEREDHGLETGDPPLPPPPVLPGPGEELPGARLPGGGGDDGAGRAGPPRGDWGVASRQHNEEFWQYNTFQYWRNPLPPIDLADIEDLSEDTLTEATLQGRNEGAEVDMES
# UniProt Q9Y6W3: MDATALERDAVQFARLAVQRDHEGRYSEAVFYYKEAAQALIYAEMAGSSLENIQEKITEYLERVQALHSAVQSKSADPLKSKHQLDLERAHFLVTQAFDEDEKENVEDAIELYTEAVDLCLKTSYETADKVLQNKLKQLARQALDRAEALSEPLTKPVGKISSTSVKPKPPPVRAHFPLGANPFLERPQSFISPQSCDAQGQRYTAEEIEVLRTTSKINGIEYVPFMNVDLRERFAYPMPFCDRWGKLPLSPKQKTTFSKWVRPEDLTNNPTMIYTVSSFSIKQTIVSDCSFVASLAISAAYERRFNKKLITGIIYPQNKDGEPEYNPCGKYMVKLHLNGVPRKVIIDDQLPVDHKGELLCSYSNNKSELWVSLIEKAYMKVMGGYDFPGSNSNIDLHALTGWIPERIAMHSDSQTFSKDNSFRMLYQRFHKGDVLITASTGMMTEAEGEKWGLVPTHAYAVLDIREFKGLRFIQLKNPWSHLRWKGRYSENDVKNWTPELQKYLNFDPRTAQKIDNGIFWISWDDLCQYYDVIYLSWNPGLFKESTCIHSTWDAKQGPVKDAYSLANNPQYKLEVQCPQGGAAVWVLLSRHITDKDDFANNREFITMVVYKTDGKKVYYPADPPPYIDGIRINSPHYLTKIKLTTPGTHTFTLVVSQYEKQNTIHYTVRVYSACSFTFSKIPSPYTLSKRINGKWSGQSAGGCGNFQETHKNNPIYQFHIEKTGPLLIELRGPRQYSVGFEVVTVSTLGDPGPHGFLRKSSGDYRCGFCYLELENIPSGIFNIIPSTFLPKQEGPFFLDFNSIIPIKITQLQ
# The list shows a part of the results.
# Compound: COc1ccc(Cn2ccc3ccc(C(=O)NO)cc32)cc1
# Assay: dose-dependent thermal stabilisation call (2D-TPP, DLPTP, 10% FDR) (binary (1 = stabilised)); higher = stabilised by the compound
# Conditions: system: HL-60 intact cells; concentration range 0.04-10 µM
row,Target,dose-dependent thermal stabilisation call
1,C2ORF15 (UniProt Q8WU43),inactive: 0
2,C16ORF13 (UniProt Q96S19),active: 1
3,C6ORF35 (UniProt Q9NWH2),inactive: 0
4,CAPZB (UniProt P47756),inactive: 0
5,C1ORF122 (UniProt Q6ZSJ8),inactive: 0
6,C2ORF29 (UniProt Q9UKZ1),inactive: 0
7,C20ORF29 (UniProt Q9NUS5),inactive: 0
8,C2ORF44 (UniProt Q9H6R7),inactive: 0
9,C9ORF85 (UniProt Q96MD7),inactive: 0
10,CARD8 (UniProt Q9Y2G2),inactive: 0
11,C4ORF16 (UniProt Q63HQ0),inactive: 0
12,C3ORF58 (UniProt Q8NDZ4),inactive: 0
13,C19ORF59 (UniProt Q8IX19),active: 1
14,CACNA2D1 (UniProt P54289),inactive: 0
15,C19ORF43 (UniProt Q9BQ61),inactive: 0
16,C18ORF21 (UniProt Q32NC0),inactive: 0
17,C9ORF78 (UniProt Q9NZ63),inactive: 0
18,CASP14 (UniProt P31944),inactive: 0
19,C3ORF37 (UniProt Q96FZ2),inactive: 0
20,C22ORF25 (UniProt Q6ICL3),inactive: 0
21,C21ORF33 (UniProt P0DPI2),inactive: 0
22,C18ORF22 (UniProt Q8N0V3),inactive: 0
23,C7ORF27 (UniProt Q6PJG6),inactive: 0
24,C16ORF80 (UniProt Q9Y6A4),inactive: 0
25,C5ORF51 (UniProt A6NDU8),inactive: 0
26,C4ORF23 (UniProt Q8IYL2),inactive: 0

# Random excerpt: 5 entries already listed.
row,Target,dose-dependent thermal stabilisation call
2,C16ORF13 (UniProt Q96S19),active: 1
11,C4ORF16 (UniProt Q63HQ0),inactive: 0
20,C22ORF25 (UniProt Q6ICL3),inactive: 0
17,C9ORF78 (UniProt Q9NZ63),inactive: 0
8,C2ORF44 (UniProt Q9H6R7),inactive: 0

# More entries follow.

row,Target,dose-dependent thermal stabilisation call
1,C16ORF63 (UniProt Q96NB1),inactive: 0
2,CAMK2D (UniProt Q13557),active: 1
3,C2ORF18 (UniProt Q8N357),inactive: 0
4,C15ORF44 (UniProt Q96SY0),inactive: 0
5,CASP1 (UniProt P29466),inactive: 0
6,C1ORF212 (UniProt Q96EX1),inactive: 0
7,C16ORF62 (UniProt Q7Z3J2),inactive: 0
8,C7ORF25 (UniProt Q9BPX7),inactive: 0
9,CAMKK2 (UniProt Q96RR4),inactive: 0
10,C9ORF89 (UniProt Q96LW7),inactive: 0
11,CAMLG (UniProt P49069),inactive: 0
12,C15ORF24 (UniProt Q9NPA0),inactive: 0
13,CALCOCO2 (UniProt Q13137),inactive: 0
14,C2ORF3 (UniProt P16383),inactive: 0
15,CASP7 (UniProt P55210),inactive: 0
16,C17ORF80 (UniProt Q9BSJ5),inactive: 0
17,C3ORF26 (UniProt Q9BQ75),inactive: 0
18,CARKD (UniProt Q8IW45),inactive: 0
19,C9ORF41 (UniProt Q8N4J0),inactive: 0
20,C1ORF149 (UniProt Q9HAF1),inactive: 0
21,C8ORF33 (UniProt Q9H7E9),inactive: 0
22,C7ORF43 (UniProt Q8WVR3),inactive: 0
23,C6ORF72 (UniProt Q9NU53),inactive: 0
24,C4ORF15 (UniProt Q68CZ6),inactive: 0
25,C3ORF17 (UniProt Q6NW34),inactive: 0
26,C6ORF66 (UniProt Q9P032),inactive: 0

row,Target,dose-dependent thermal stabilisation call
1,C3ORF63 (UniProt Q9UK61),inactive: 0
2,C17ORF71 (UniProt Q8ND04),inactive: 0
3,C17ORF62 (UniProt Q9BQA9),inactive: 0
4,CAT (UniProt P04040),inactive: 0
5,C13ORF37 (UniProt Q08AG7),inactive: 0
6,C1ORF174 (UniProt Q8IYL3),inactive: 0
7,C7ORF28A (UniProt P86791),inactive: 0
8,C2ORF30 (UniProt Q96DZ1),inactive: 0
9,CBS (UniProt P35520),inactive: 0
10,C7ORF26 (UniProt Q96N11),inactive: 0
11,CAMK1 (UniProt Q14012),inactive: 0
12,C9ORF82 (UniProt Q9H8G2),inactive: 0
13,C9ORF40 (UniProt Q8IXQ3),inactive: 0
14,CAMKK1 (UniProt Q8N5S9),inactive: 0
15,C2ORF28 (UniProt Q6UW56),inactive: 0
16,C3ORF19 (UniProt Q6PII3),inactive: 0
17,C2ORF60 (UniProt A2RUC4),inactive: 0
18,C20ORF3 (UniProt Q9HDC9),inactive: 0
19,C15ORF15 (UniProt Q9UHA3),inactive: 0
20,C4ORF32 (UniProt Q8N8J7),inactive: 0
21,C16ORF54 (UniProt Q6UWD8),inactive: 0
22,CASC3 (UniProt O15234),inactive: 0
23,CAPN7 (UniProt Q9Y6W3),inactive: 0
24,C4ORF8 (UniProt P78312),inactive: 0
